These are yes or no findings as the source states them, for the method shown. In cells and extracts the contact can be indirect. Some results given as binding are weak or reduced against the parent protein; the word gives no strength. For part of these data: Where a sequence is shown, tags or fusion partners need not be part of it.
What was measured:
Assay in all cases: co-IP; HEK293T transfected with Myc-mPCM1 fragments for 48 h; lysates in ELB buffer (50 mM Hepes pH 7, 150 mM NaCl, 5 mM EDTA, 0.1% NP-40); anti-Myc antibody on Protein G Sepharose, 4°C; western blot for endogenous satellite proteins
[1] = biological target: T1, Myc-mPCM1 fragment spanning residues 1–1200 (mouse) (UniProt Q9R0L6)
T1 sequence: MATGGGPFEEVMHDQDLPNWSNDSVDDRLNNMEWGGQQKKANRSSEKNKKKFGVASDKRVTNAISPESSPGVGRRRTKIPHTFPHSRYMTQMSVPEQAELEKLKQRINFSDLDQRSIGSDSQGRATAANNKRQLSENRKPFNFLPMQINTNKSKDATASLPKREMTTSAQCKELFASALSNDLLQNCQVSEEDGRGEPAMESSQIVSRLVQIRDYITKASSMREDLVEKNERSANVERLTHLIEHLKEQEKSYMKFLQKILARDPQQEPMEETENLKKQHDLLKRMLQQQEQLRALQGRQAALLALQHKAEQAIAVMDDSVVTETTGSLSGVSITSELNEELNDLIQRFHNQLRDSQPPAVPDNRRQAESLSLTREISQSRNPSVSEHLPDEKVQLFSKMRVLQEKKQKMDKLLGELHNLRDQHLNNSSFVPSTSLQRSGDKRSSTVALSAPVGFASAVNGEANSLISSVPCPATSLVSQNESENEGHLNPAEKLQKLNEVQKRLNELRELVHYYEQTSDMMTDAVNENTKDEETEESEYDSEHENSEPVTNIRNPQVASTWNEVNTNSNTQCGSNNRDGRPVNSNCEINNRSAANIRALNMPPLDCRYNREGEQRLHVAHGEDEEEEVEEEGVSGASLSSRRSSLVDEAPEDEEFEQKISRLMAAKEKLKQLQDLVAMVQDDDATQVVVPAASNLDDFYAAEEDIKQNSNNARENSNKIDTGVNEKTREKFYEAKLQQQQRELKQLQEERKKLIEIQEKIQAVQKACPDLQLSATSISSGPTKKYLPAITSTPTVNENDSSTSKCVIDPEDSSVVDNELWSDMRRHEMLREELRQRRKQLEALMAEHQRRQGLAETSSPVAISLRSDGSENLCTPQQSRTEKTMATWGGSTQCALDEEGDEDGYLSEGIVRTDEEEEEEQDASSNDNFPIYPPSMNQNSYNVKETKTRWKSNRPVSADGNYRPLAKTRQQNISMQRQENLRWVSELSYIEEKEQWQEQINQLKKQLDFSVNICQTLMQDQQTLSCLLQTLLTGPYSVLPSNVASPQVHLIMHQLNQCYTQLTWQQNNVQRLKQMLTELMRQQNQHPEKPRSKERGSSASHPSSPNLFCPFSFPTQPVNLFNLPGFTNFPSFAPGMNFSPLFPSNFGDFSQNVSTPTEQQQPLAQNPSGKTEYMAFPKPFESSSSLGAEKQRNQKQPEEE

Protein sequences, listed by entry. Tags and fused reporters are not part of them.
UniProt Q9P209: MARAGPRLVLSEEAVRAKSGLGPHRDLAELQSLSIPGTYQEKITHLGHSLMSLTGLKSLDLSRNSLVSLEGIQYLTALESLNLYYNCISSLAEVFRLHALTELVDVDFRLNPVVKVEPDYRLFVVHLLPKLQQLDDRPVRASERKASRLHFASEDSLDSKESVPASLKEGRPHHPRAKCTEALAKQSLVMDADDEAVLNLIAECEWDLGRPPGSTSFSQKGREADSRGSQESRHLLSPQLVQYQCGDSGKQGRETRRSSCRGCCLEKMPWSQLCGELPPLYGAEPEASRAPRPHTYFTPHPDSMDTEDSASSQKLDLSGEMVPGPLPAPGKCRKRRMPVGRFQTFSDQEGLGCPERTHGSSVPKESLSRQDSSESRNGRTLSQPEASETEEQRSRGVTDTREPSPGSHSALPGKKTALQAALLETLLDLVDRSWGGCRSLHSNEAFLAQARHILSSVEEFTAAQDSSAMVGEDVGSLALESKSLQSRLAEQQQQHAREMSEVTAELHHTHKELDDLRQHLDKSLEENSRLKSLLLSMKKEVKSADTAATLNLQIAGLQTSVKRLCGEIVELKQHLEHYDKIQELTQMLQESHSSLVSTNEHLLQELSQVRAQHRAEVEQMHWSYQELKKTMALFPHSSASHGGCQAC

[2] = biological target: T2, Myc-mPCM1 fragment spanning residues 1–1500 (mouse) (UniProt Q9R0L6)
T2 sequence: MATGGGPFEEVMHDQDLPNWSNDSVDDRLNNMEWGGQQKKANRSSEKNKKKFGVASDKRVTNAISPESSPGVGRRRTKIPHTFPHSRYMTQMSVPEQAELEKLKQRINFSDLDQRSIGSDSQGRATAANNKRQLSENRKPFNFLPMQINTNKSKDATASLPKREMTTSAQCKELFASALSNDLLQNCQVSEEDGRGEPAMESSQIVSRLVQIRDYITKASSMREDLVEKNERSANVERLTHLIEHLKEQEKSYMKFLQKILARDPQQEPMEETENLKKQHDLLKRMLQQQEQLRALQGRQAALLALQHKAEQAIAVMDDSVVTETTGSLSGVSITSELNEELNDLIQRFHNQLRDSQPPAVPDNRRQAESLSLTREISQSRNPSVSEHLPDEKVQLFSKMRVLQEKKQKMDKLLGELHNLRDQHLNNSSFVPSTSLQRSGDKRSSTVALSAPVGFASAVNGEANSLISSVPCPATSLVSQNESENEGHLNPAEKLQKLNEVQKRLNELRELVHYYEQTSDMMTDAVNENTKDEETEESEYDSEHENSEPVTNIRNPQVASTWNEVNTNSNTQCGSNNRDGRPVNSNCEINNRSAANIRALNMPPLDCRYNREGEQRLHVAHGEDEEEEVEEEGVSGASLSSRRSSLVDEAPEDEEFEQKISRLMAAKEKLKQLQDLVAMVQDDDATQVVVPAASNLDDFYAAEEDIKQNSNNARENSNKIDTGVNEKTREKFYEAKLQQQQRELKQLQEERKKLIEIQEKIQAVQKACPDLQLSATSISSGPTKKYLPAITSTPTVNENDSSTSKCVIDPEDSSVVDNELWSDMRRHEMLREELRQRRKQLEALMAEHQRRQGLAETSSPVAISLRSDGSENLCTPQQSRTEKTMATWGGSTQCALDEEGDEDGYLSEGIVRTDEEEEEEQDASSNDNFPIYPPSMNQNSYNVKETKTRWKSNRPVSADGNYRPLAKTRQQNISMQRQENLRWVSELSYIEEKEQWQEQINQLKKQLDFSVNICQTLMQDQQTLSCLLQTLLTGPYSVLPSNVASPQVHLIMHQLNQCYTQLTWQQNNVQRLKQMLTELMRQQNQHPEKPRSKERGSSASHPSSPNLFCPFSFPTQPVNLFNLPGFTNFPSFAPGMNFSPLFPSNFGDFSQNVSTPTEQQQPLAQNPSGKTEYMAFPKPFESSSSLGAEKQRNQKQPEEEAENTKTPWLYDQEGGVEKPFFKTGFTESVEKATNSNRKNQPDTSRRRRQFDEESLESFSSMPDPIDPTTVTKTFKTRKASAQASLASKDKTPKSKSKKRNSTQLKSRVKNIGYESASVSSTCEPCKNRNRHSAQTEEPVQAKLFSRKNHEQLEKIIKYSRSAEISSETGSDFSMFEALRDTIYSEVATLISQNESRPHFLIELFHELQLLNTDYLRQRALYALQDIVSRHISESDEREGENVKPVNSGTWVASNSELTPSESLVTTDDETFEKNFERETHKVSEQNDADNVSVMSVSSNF

[3] = biological target: Myc-tagged full-length mouse PCM1 (mouse) (UniProt Q9R0L6)

Measured: binding

Cep72, endogenous (from UniProt Q9P209 1-647)
binds: all assays above

B1: AZI1/Cep131, endogenous (protein, UniProt Q9UPN4 1-1083)
chain: MKGTRAIGSVPERSPAGVDLSLTGLPPPVSRRPGSAATTKPIVRSVSVVTGSEQKRKVLEATGPGGSQAINNLRRSNSTTQVSQPRSGSPRPTEPTDFLMLFEGSPSGKKRPASLSTAPSEKGATWNVLDDQPRGFTLPSNARSSSALDSPAGPRRKECTVALAPNFTANNRSNKGAVGNCVTTMVHNRYTPSERAPPLKSSNQTAPSLNNIIKAATCEGSESSGFGKLPKNVSSATHSARNNTGGSTGLPRRKEVTEEEAERFIHQVNQATVTIQRWYRHQVQRRGAGAARLEHLLQAKREEQRQRSGEGTLLDLHQQKEAARRKAREEKARQARRAAIQELQQKRALRAQKASTAERGPPENPRETRVPGMRQPAQELSPTPGGTAHQALKANNTGGGLPAAGPGDRCLPTSDSSPEPQQPPEDRTQDVLAQDAAGDNLEMMAPSRGSAKSRGPLEELLHTLQLLEKEPDVLPRPRTHHRGRYAWASEVTTEDDASSLTADNLEKFGKLSAFPEPPEDGTLLSEAKLQSIMSFLDEMEKSGQDQLDSQQEGWVPEAGPGPLELGSEVSTSVMRLKLEVEEKKQAMLLLQRALAQQRDLTARRVKETEKALSRQLQRQREHYEATIQRHLAFIDQLIEDKKVLSEKCEAVVAELKQEDQRCTERVAQAQAQHELEIKKLKELMSATEKARREKWISEKTKKIKEVTVRGLEPEIQKLIARHKQEVRRLKSLHEAELLQSDERASQRCLRQAEELREQLEREKEALGQQERERARQRFQQHLEQEQWALQQQRQRLYSEVAEERERLGQQAARQRAELEELRQQLEESSSALTRALRAEFEKGREEQERRHQMELNTLKQQLELERQAWEAGRTRKEEAWLLNREQELREEIRKGRDKEIELVIHRLEADMALAKEESEKAAESRIKRLRDKYEAELSELEQSERKLQERCSELKGQLGEAEGENLRLQGLVRQKERALEDAQAVNEQLSSERSNLAQVIRQEFEDRLAASEEETRQAKAELATLQARQQLELEEVHRRVKTALARKEEAVSSLRTQHEAAVKRADHLEELLEQHRRPTPSTK
binds: all assays above
